Source: the supplement of paper PMC10849652
This is one part of the list.

Protein sequences, listed by entry. Tags and fused reporters are not part of them. Lines headed by an entry give the natural chain unless they say otherwise; changes in a name come on top.
UniProt O14641: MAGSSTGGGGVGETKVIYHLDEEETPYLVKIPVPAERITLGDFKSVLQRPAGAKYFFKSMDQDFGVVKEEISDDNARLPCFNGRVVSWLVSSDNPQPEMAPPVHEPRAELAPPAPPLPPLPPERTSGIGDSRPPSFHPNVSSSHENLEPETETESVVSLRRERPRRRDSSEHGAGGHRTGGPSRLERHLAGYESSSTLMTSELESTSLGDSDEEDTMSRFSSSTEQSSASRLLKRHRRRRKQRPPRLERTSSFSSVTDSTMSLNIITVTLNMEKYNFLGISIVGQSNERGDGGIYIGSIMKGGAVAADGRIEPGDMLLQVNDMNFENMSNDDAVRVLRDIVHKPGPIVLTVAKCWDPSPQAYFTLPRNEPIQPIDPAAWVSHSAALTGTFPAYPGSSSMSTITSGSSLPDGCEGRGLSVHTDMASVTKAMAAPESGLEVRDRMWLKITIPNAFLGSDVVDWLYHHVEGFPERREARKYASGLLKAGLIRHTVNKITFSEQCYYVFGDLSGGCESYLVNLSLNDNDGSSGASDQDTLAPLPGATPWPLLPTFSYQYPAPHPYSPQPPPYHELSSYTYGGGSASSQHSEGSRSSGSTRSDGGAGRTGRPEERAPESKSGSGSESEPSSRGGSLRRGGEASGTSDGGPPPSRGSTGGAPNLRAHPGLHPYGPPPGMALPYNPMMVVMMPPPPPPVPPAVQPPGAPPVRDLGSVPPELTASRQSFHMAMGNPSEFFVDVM
UniProt O75071: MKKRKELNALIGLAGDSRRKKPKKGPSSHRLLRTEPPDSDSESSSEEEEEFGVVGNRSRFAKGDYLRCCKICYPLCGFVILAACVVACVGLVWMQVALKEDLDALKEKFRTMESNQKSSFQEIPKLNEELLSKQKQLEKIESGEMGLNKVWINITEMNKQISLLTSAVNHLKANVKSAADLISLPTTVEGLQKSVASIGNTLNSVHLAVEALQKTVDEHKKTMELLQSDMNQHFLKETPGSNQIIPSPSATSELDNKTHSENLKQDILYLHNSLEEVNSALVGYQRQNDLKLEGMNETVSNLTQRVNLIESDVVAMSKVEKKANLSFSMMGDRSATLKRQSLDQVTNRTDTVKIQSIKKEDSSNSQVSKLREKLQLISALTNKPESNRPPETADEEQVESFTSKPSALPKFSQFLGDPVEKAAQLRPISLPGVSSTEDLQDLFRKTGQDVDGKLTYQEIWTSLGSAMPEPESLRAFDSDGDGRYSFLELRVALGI
UniProt Q99956: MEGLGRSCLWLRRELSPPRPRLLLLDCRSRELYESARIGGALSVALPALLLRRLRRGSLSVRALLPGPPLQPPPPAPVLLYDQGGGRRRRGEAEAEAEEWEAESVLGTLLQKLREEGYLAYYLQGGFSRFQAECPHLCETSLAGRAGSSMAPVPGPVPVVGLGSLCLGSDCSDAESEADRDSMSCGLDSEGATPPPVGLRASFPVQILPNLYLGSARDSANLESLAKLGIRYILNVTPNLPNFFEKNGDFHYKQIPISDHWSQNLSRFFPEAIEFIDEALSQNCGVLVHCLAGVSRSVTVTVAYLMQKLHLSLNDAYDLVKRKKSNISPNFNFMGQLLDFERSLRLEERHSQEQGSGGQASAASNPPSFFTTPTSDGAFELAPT
UniProt Q9NP97, whole entry, looked up: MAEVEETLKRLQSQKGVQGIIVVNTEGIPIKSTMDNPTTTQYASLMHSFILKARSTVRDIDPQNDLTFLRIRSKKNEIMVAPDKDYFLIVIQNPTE
UniProt P41567, whole entry, looked up: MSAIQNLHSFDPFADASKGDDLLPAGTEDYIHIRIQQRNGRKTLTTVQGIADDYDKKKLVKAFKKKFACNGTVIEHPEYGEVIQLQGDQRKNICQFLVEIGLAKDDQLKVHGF
UniProt P29692: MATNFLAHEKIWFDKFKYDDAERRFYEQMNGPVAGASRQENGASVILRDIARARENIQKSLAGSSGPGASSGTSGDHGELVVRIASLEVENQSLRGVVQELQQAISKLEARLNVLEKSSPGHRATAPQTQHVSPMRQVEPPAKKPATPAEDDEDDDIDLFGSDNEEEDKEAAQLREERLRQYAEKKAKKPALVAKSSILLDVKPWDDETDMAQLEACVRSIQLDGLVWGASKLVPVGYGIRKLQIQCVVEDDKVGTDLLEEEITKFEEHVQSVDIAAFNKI
UniProt O77932: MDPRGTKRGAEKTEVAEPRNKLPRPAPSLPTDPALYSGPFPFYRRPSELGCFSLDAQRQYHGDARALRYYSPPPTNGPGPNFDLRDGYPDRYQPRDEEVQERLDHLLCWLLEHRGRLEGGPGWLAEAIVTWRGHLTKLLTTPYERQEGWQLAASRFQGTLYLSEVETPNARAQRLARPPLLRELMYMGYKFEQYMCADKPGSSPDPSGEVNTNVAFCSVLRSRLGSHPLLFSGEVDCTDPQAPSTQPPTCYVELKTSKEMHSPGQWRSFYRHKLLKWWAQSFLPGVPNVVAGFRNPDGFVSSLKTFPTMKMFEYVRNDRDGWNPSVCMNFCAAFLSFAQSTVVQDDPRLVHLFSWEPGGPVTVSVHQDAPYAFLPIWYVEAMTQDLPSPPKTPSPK
UniProt Q14126: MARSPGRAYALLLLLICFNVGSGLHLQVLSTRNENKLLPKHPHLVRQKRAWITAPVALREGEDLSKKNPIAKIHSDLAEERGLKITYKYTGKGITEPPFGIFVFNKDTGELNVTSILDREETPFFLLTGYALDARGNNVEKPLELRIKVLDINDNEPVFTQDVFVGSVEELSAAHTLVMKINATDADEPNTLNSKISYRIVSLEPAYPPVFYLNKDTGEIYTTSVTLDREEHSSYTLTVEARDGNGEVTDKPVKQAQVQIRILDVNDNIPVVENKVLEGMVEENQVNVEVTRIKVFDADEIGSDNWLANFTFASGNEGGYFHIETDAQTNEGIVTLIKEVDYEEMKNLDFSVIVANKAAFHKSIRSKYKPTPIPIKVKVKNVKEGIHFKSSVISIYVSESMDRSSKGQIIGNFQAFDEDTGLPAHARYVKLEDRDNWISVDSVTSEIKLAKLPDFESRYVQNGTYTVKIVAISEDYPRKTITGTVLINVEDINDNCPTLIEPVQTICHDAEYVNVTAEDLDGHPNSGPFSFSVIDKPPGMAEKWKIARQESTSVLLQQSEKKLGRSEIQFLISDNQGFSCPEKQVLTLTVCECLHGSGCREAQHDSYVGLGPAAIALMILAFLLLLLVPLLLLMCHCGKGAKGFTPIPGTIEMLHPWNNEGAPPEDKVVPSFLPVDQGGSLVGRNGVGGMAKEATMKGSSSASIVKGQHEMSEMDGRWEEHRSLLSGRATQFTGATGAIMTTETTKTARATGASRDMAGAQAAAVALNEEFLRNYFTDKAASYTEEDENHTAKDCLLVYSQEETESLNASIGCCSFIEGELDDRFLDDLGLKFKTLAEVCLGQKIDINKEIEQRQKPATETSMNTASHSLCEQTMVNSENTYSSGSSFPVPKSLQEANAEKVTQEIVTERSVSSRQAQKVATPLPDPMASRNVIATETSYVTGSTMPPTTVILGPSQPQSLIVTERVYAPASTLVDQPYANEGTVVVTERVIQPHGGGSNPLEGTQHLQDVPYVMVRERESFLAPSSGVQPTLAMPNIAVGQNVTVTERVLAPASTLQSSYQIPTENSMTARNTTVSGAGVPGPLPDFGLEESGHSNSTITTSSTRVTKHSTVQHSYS
UniProt P63172, whole entry, looked up: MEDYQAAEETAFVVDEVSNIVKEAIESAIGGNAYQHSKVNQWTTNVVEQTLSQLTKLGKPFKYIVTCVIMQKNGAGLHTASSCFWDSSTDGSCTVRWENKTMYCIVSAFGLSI
UniProt Q8WWZ3: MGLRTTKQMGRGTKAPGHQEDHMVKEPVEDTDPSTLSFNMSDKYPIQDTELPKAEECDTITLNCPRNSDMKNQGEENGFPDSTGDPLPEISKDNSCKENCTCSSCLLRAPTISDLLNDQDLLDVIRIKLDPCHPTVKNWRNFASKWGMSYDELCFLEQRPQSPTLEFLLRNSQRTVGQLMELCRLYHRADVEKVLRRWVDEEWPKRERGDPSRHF
UniProt Q9NZN4: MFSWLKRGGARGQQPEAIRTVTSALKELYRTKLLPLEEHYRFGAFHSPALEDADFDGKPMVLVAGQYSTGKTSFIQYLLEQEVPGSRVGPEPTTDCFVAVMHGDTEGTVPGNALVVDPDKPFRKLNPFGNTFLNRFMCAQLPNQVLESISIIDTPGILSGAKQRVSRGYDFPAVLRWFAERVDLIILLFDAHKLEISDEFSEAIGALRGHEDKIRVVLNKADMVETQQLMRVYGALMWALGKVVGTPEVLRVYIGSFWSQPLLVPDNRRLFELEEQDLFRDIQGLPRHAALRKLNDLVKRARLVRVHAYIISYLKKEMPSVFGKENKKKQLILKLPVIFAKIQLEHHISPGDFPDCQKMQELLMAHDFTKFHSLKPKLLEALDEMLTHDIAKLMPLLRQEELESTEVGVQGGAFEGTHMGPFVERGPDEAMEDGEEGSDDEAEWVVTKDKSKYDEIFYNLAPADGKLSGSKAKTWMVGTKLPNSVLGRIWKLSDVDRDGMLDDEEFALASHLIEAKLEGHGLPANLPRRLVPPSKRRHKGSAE
UniProt Q16610: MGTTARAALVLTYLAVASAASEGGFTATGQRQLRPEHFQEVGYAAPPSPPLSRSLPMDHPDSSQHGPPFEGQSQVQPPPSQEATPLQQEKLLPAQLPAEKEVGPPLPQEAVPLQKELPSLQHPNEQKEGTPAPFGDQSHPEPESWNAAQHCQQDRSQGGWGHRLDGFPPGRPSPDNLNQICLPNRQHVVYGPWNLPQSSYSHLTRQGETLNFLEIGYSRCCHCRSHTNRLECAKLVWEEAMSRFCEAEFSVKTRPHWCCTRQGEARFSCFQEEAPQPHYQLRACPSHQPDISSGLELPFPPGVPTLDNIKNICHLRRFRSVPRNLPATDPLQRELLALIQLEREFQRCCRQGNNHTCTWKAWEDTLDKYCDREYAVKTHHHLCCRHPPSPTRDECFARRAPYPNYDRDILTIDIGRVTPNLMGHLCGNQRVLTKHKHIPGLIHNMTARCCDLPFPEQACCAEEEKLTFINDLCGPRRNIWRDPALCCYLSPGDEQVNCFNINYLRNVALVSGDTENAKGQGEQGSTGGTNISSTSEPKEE
UniProt Q96EV8: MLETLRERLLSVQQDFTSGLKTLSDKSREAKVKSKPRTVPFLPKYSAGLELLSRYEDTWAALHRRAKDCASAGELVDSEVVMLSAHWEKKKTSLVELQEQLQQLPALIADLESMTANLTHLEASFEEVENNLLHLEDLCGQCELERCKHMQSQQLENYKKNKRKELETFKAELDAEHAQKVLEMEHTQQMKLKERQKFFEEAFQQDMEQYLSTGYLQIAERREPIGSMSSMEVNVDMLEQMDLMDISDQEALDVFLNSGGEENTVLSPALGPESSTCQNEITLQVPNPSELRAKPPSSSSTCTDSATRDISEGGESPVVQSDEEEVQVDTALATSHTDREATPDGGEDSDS
UniProt Q7RTS9: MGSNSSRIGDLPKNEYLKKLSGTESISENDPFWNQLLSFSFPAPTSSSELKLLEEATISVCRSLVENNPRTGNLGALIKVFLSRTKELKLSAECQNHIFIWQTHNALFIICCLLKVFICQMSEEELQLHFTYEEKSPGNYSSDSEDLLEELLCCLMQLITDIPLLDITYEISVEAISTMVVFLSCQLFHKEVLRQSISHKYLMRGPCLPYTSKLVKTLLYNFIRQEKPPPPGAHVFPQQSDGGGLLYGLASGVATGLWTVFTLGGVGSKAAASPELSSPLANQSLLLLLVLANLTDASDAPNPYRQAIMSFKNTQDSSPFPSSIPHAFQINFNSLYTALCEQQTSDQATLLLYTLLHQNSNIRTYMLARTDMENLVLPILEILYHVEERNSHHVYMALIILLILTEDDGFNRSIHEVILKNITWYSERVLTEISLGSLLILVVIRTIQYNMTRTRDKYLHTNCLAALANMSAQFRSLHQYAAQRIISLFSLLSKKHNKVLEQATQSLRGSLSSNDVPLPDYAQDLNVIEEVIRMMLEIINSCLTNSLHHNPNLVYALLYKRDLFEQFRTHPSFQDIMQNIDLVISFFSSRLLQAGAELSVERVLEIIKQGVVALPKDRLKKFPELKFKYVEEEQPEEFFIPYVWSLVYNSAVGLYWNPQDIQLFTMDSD
UniProt P55039: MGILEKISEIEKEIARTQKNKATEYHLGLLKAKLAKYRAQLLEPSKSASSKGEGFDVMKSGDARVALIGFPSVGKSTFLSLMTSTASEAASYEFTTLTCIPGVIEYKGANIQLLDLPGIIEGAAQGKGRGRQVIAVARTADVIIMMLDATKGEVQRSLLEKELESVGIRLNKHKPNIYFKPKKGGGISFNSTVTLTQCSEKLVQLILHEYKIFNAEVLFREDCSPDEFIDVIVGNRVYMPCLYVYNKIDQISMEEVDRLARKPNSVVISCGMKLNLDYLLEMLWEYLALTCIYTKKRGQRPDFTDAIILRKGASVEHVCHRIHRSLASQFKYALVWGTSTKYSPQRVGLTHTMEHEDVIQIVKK
UniProt Q9NRW4: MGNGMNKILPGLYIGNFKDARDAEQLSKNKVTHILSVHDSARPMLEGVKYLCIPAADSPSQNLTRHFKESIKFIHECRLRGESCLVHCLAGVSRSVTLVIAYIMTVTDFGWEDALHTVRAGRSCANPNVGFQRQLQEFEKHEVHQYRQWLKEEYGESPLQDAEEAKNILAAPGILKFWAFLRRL

Columns and labels:
Assay in all cases: log2 fold change, soluble protein after heating vs DMSO (PISA); higher = thermal stabilisation; K562 lysate, 10 uM; active = over 0.2 and 3.5 SD of the protein, either way, in both replicates (recomputed)
ibrutinib = compound: C=CC(=O)N1CCC[C@@H](n2nc(-c3ccc(Oc4ccccc4)cc3)c3c(N)ncnc32)C1 [ibrutinib]
Outline: (§1)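 K562 pellets were dounce-homogenised in PBS pH 7.4 containing 1 mM MgCl2, and the crude extract, at 1 mg/mL protein, was exposed to 10 μM compound for 30 min. Aliquots were heated for 3 min across 48°C-58°C, pooled, brought to 0.5% NP-40 at 4°C and spun at 21,000xg for 90 min, with the supernatant taken as soluble protein. TMTpro 16plex LC-MS/MS with equalised channel sums quantified that protein. Values are log-two fold changes in thermal stability relative to solvent controls, taken from duplicates.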

[1] = compound: CC(=O)c1cnc2ccc(-c3cc(Cl)c(O)c(Cl)c3)nc2c1N[C@H]1CC[C@H](CN(C)C)CC1
Outline: as §1

ralimetinib = compound: CC(C)(C)Cn1c(N)nc2ccc(-c3[nH]c(C(C)(C)C)nc3-c3ccc(F)cc3)nc21 [ralimetinib]
Outline: as §1

[2] = compound: CC(C)(O)CC(=O)NCCn1ccc2ncnc(Nc3ccc(Oc4cccc(C(F)(F)F)c4)c(Cl)c3)c21
Outline: as §1

[3] = compound: CC(C)C1=C2N=C(C=C(N2N=C1)NCC3=CC=CC=C3)NCCCCCCN
Outline: as §1

[4] = compound: CC1=C(C(CC(=O)N1)C2=CC=C(C=C2)C(F)(F)F)C(=O)NC3=C(C=C4C(=C3)C=NN4)F
Outline: as §1

[5] = compound: CC1=C(C2=C(C=C1)C(=O)C3=CC=CC=C3N2CCCN)C
Outline: as §1

[6] = compound: CC1=C(C=C(C=C1)NC(=O)C2=CC(=CC=C2)C(C)(C)C#N)NC3=CC4=C(C=C3)N=CN(C4=O)C
Outline: as §1

[7] = compound: CC1=C(C=C(C=C1)NC(=O)C2=CC(=CC=C2)N(C)C)NC(=O)C3=CC=C(C=C3)O
Outline: as §1

[8] = compound: CC1=CC=C(C=C1)SC2=C3C=C(SC3=CN=C2)C(=O)N
Outline: as §1

Measured: log2 fold change

DVL2 (UniProt O14641)
inactive: ibrutinib -0.032 | [1] 0.085 | ralimetinib 0.022 | [2] 0.032 | [3] -0.019 | [4] 0.028 | [5] -0.056 | [6] -0.072 | [7] 0.045 | [8] 0.11

ECE1 (UniProt P42892)
inactive: ibrutinib -0.01 | [1] 0.009 | ralimetinib -0.02 | [2] -0.028 | [3] -0.045 | [4] 0 | [5] 0.005 | [6] -0.023 | [7] 0.014 | [8] -0.081

EFCAB14 (UniProt O75071)
inactive: ibrutinib 0.026 | [1] 0.015 | ralimetinib 0.055 | [2] -0.075 | [3] -0.045 | [4] 0.077 | [5] 0.02 | [6] 0.011 | [7] 0.016 | [8] 0.012

EED, A0A5F9ZI63
inactive: ibrutinib -0.026 | [1] -0.018 | ralimetinib 0.008 | [2] -0.039 | [3] -0.004 | [4] 0.036 | [5] -0.003 | [6] -0.016 | [7] 0.042 | [8] -0.008

DUSP9 (UniProt Q99956)
inactive: ibrutinib 0 | [1] 0.049 | ralimetinib 0.033 | [2] 0.094 | [3] 0.134 | [4] 0.047 | [5] -0.007 | [6] -0.001 | [7] 0.04 | [8] 0.088

EIF1B (UniProt O60739)
inactive: ibrutinib -0.123 | [1] 0.02 | ralimetinib -0.001 | [2] -0.016 | [3] -0.08 | [4] -0.211 | [5] -0.137 | [6] 0.304 | [7] -0.156 | [8] -0.123

ECI2 (UniProt O75521)
inactive: ibrutinib 0.01 | [1] -0.027 | ralimetinib -0.033 | [2] -0.049 | [3] -0.015 | [4] -0.013 | [5] -0.008 | [6] 0.013 | [7] 0.007 | [8] 0

EHBP1 isoform 2 (UniProt Q8NDI1)
inactive: ibrutinib 0.019 | [1] -0.021 | ralimetinib 0.01 | [2] -0.047 | [3] -0.007 | [4] -0.063 | [5] 0.013 | [6] 0.047 | [7] 0.066 | [8] -0.02

DYNLRB1 (UniProt Q9NP97)
inactive: ibrutinib 0.02 | [1] -0.026 | ralimetinib -0.039 | [2] -0.031 | [3] -0.002 | [4] -0.041 | [5] 0.016 | [6] 0.074 | [7] 0.009 | [8] 0.002

DUS4L (UniProt O95620)
inactive: ibrutinib 0.134 | [1] 0.013 | ralimetinib -0.029 | [2] 0.04 | [3] 0.03 | [4] -0.039 | [5] -0.024 | [6] 0.033 | [7] -0.03 | [8] -0.029

EIF1 (UniProt P41567)
inactive: ibrutinib 0.026 | [1] 0.015 | ralimetinib -0.016 | [2] 0.011 | [3] 0 | [4] -0.114 | [5] 0.059 | [6] 0.045 | [7] -0.043 | [8] -0.037

EEF1D isoform 2 (UniProt P29692)
inactive: ibrutinib 0.004 | [1] -0.005 | ralimetinib 0.007 | [2] -0.032 | [3] -0.004 | [4] -0.047 | [5] 0.021 | [6] 0.005 | [7] 0.004 | [8] -0.009

DXO (UniProt O77932)
inactive: ibrutinib -0.018 | [1] 0.057 | ralimetinib 0.137 | [2] -0.038 | [3] -0.038 | [4] 0.005 | [5] -0.015 | [6] 0.029 | [7] -0.015 | [8] -0.003

DSG2 (UniProt Q14126)
inactive: ibrutinib 0.024 | [1] 0 | ralimetinib 0.09 | [2] 0.063 | [3] -0.019 | [4] 0.032 | [5] -0.004 | [6] 0.037 | [7] -0.02 | [8] -0.044

DST (UniProt Q03001)
inactive: ibrutinib 0.007 | [1] -0.031 | ralimetinib -0.034 | [2] -0.098 | [3] 0.021 | [4] -0.052 | [5] -0.054 | [6] 0.049 | [7] 0.063 | [8] -0.046

DYNC1LI1 (UniProt Q9Y6G9)
inactive: ibrutinib -0.009 | [1] 0.002 | ralimetinib 0 | [2] -0.009 | [3] -0.008 | [4] 0.001 | [5] 0.007 | [6] -0.009 | [7] 0.027 | [8] 0.002

Reprinted from above (2 entries):
DSG2 (UniProt Q14126)
inactive: ibrutinib 0.024 | [1] 0 | ralimetinib 0.09 | [2] 0.063 | [3] -0.019 | [4] 0.032 | [5] -0.004 | [6] 0.037 | [7] -0.02 | [8] -0.044

DST (UniProt Q03001)
inactive: ibrutinib 0.007 | [1] -0.031 | ralimetinib -0.034 | [2] -0.098 | [3] 0.021 | [4] -0.052 | [5] -0.054 | [6] 0.049 | [7] 0.063 | [8] -0.046

The listing continues:

DYNLT1 (UniProt P63172)
inactive: ibrutinib 0.077 | [1] 0.041 | ralimetinib 0.017 | [2] -0.107 | [3] -0.089 | [4] -0.011 | [5] 0.018 | [6] -0.01 | [7] 0.081 | [8] 0.028

EHMT1 (UniProt Q9H9B1)
inactive: ibrutinib 0.042 | [1] -0.007 | ralimetinib 0.03 | [2] -0.03 | [3] 0.045 | [4] 0.001 | [5] -0.023 | [6] 0.032 | [7] 0.045 | [8] 0.024

EDARADD (UniProt Q8WWZ3)
inactive: ibrutinib 0.22 | [1] -0.019 | ralimetinib -0.003 | [2] -0.071 | [3] -0.008 | [4] -0.007 | [5] 0.062 | [6] 0.041 | [7] 0.017 | [8] -0.035

EDRF1 (UniProt Q3B7T1)
inactive: ibrutinib 0.065 | [1] 0.026 | ralimetinib -0.011 | [2] -0.067 | [3] -0.008 | [4] 0.043 | [5] 0.009 | [6] 0.031 | [7] 0.039 | [8] 0.048

DPP8 (UniProt Q6V1X1)
inactive: ibrutinib 0.1 | [1] 0.035 | ralimetinib -0.022 | [2] -0.069 | [3] -0.045 | [4] 0.006 | [5] 0.017 | [6] -0.064 | [7] 0.022 | [8] 0.088

EHD2 (UniProt Q9NZN4)
inactive: ibrutinib -0.004 | [1] 0.035 | ralimetinib 0.054 | [2] -0.027 | [3] -0.005 | [4] 0.066 | [5] 0.063 | [6] 0.019 | [7] 0.059 | [8] 0.017

ECM1 isoform 4 (UniProt Q16610)
inactive: ibrutinib -0.043 | [1] 0.036 | ralimetinib -0.038 | [2] 0.017 | [3] -0.001 | [4] 0.074 | [5] -0.006 | [6] 0.006 | [7] 0.018 | [8] -0.012

DPH1 (UniProt Q9BZG8)
inactive: ibrutinib 0.014 | [1] 0.011 | ralimetinib -0.003 | [2] -0.009 | [3] -0.02 | [4] -0.035 | [5] -0.002 | [6] 0.029 | [7] -0.015 | [8] -0.015

DTNBP1 (UniProt Q96EV8)
inactive: ibrutinib 0.028 | [1] 0.007 | ralimetinib -0.013 | [2] -0.002 | [3] 0 | [4] 0.009 | [5] 0.011 | [6] -0.006 | [7] 0.003 | [8] -0.005

DYM (UniProt Q7RTS9)
inactive: ibrutinib -0.043 | [1] -0.11 | ralimetinib -0.047 | [2] -0.041 | [3] -0.069 | [4] 0.049 | [5] -0.107 | [6] -0.027 | [7] -0.08 | [8] -0.065

EEF2 (UniProt P13639)
inactive: ibrutinib 0.013 | [1] -0.005 | ralimetinib -0.008 | [2] 0.003 | [3] -0.017 | [4] -0.015 | [5] -0.003 | [6] -0.006 | [7] -0.007 | [8] -0.006

DSCC1 (UniProt Q9BVC3)
inactive: ibrutinib -0.038 | [1] 0.141 | ralimetinib 0.021 | [2] -0.058 | [3] 0.012 | [4] 0.019 | [5] 0.001 | [6] -0.011 | [7] -0.047 | [8] -0.145

DRG2 (UniProt P55039)
inactive: ibrutinib 0.008 | [1] -0.02 | ralimetinib 0.006 | [2] -0.024 | [3] 0.037 | [4] -0.02 | [5] -0.035 | [6] 0.009 | [7] 0.006 | [8] -0.003

DUSP22 isoform 2 (UniProt Q9NRW4)
inactive: ibrutinib -0.059 | [1] 0.043 | ralimetinib 0.007 | [2] 0.02 | [3] -0.092 | [4] 0.177 | [5] -0.046 | [7] 0.081 | [8] 0.007
